Test [1] deals with T1, S-tagged mouse USP2-45 (ubiquitin-specific protease 2-45) (mouse) (UniProt O88623).
T1 sequence: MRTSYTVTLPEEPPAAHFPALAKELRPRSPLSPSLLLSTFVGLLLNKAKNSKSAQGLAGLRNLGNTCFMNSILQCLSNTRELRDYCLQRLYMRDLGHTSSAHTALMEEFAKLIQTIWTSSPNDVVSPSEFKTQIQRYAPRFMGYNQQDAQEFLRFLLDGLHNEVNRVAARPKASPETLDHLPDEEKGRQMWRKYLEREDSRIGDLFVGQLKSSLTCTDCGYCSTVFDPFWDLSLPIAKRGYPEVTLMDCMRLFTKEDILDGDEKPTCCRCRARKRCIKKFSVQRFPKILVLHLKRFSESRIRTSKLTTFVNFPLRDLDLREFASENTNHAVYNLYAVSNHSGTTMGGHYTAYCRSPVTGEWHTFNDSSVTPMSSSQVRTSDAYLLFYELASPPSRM
Kind of test: pull-down; 1 mg lysate of transfected HEK-293 cells; S-tagged USP2-45 captured with biotinylated S-protein and streptavidin sepharose beads, 4 °C; beads washed five times with lysis buffer; Western blot; n = 3.

Amino acid sequences for entries named in this document (tags omitted). A change or cut given only in a name is not applied to a line headed by its entry. Residues count along the entry.
UniProt P15381: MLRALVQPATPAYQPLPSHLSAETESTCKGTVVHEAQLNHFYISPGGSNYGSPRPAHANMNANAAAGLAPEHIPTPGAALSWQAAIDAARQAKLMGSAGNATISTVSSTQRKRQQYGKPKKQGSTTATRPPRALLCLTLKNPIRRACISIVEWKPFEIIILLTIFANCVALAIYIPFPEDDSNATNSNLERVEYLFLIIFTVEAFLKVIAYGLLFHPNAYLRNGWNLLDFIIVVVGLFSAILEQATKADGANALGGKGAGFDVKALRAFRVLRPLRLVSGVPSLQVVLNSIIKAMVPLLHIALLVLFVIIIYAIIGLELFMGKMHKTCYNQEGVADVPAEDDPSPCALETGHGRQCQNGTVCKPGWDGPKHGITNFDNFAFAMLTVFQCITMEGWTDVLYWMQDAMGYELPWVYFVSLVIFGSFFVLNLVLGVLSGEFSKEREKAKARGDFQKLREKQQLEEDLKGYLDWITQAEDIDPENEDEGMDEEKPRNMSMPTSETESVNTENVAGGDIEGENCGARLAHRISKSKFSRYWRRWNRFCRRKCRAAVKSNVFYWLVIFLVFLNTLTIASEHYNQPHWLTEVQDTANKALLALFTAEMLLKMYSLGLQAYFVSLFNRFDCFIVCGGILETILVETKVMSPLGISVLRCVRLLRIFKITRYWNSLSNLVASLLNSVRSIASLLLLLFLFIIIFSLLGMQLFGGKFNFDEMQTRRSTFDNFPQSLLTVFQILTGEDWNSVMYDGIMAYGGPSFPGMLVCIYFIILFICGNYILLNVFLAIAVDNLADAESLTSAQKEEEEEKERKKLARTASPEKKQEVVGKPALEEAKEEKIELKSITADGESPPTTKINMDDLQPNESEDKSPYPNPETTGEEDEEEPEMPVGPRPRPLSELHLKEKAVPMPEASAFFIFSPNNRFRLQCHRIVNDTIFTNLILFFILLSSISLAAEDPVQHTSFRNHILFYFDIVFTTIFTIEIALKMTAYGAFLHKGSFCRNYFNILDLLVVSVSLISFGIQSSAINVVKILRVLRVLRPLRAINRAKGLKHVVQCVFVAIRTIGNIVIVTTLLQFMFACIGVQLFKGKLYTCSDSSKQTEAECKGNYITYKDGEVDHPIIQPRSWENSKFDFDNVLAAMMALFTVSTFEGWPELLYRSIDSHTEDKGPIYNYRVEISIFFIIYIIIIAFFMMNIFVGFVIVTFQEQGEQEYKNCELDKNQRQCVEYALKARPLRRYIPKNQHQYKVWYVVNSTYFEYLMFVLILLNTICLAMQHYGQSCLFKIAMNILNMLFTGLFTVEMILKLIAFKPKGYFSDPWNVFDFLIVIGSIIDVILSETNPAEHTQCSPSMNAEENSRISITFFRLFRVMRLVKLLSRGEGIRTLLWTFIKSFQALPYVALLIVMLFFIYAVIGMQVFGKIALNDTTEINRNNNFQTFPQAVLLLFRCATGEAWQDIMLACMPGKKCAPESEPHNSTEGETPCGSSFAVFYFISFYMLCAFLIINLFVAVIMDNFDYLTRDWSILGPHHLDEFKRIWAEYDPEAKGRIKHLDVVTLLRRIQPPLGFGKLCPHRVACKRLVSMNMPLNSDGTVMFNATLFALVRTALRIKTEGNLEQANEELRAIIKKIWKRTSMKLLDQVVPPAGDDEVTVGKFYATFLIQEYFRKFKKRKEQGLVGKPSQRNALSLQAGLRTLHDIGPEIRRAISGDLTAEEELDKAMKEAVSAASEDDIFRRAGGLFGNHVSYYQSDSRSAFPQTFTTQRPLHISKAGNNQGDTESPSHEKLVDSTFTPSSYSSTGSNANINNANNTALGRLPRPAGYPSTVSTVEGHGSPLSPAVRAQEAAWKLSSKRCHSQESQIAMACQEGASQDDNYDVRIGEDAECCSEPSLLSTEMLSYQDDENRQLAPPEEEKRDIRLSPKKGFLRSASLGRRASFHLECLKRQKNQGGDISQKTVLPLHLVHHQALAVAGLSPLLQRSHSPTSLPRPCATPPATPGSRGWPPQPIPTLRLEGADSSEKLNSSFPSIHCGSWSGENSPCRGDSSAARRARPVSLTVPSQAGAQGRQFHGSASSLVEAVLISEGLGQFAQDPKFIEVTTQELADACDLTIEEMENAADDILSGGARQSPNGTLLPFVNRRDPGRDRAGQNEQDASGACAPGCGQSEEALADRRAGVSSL
UniProt P13806, residues 27-1106: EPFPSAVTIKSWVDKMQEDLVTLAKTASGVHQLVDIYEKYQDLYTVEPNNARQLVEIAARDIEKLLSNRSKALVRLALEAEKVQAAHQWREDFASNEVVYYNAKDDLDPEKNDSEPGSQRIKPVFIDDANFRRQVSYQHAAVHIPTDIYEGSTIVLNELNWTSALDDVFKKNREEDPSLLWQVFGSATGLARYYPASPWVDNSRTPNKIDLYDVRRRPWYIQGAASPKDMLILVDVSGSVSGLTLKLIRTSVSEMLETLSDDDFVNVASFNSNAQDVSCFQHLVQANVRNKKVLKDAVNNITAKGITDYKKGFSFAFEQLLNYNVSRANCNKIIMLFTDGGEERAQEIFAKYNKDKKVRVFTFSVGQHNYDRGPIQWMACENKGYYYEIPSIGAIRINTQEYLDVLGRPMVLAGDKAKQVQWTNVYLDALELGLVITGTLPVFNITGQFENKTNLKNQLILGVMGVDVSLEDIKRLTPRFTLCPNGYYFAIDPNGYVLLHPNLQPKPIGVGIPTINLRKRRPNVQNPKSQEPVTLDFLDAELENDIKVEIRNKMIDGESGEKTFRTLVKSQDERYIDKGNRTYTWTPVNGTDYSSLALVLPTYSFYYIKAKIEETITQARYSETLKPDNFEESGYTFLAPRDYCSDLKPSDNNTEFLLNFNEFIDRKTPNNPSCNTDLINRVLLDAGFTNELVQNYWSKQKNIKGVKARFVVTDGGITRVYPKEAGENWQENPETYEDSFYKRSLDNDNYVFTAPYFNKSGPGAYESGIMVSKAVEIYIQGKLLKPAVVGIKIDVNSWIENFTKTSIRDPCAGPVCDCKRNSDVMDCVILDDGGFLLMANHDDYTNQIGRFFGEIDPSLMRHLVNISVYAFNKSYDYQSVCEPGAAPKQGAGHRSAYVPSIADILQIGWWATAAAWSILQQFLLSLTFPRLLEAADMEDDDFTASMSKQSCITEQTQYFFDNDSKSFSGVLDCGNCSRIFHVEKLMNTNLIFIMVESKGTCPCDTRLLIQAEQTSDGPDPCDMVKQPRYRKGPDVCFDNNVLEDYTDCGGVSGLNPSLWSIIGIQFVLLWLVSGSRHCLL

For test [2], the target named is Rabbit Cav1.2 (cardiac isoform α1c) (rabbit) (UniProt P15381). Kind of test: pull-down; surface biotinylation of transfected HEK-293 cells (Sulfo-NHS-SS-Biotin, 30 min, 4 °C), lysis, streptavidin sepharose pull-down of biotinylated proteins and their binding partners from 1 mg total protein, 2 h at 4 °C; Western blot; control and USP2-45-transfected cells; n = 4.

Drawing on PMC4537497, this text covers binding for three substances.

Results are given in words; binding and its absence hold for the method and conditions named. Binding seen in cells or lysates may run through a third protein. Some results given as binding are weak or reduced against the parent protein; the word gives no strength. For some of these results: Tags and fused reporters may be left off the sequences shown.

Consider “Rabbit voltage-gated calcium channel accessory subunit α2δ-1a (from UniProt P13806 27-1106)”, for which, in test [1], the binding entry is reported as “binds”.
With “Rabbit voltage-gated calcium channel accessory subunit β2b (from UniProt P54288 1-632)”, the values for the binding result in test [2] and in test [1] were “binds” and “no binding”, respectively.
Take “Rabbit Cav1.2 (cardiac isoform α1c) (from UniProt P15381 1-2171)”: in test [1], the binding result is “no binding”.
